# This is one part of the list.
# B1: BSR4 (Toxoplasma gondii), Q95NL6 (protein)
# chain: MVMMGSMQQRRGGLRSNARQLLAVCMSGVVFFSSGQAVADNLLEGLLHRTLQQQVEVTSRLTVAGSDAKCDFFTPATQDSPPVSGSLTLSKGRMTATFECSATQALSISTIPTNIEQNVCDPKKTTNGTVCQFGANGSAGTEVTLKDLLETDRIVNWKVNEQREESNKSQKWSLELHNEDLPLTDKAFVVGCQATSAARGTESGKTAACKLTVNVEARASSLAENNVVTCAYGKGSNPNPVEVEMSTEKNTLTINCGSDGSLQPTTYAEEYCVADSKDVNRCSTTRFVEIFPKFLKSWWVTETQKRTSATLTIPQTDLPEADQQFLVGCVPKKTAPEDPKKDKESGTETGAPTSCTVLVTVKAASSASHASPTVQILAAASSAAA
# Tests used:
# Assay in all cases: glycan array binding signal (z-score within array); higher = stronger binding
# Conditions in all cases: glycan notation: IUPAC condensed, linker removed
# [1] = biological target: Neu5Ac(a2-6)Gal(b1-4)GlcNAc(b1-2)Man(a1-3)Man(b1-4)GlcNAc(b1-4)GlcNAc
# Procedure, shortened: (§1)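 Negative Z-scores can be read as non-binding. The Z-score is calculated within each array and then averaged across arrays of one protein sequence at different concentrations or buffers and across linkers. Arrays, 3228 in all, were curated from the Consortium for Functional Glycomics database and kept only where the protein sequence was available.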
# [2] = biological target: Neu5Ac(a2-6)Gal(b1-4)GlcNAc(b1-2)Man(a1-3)[Gal(b1-4)GlcNAc(b1-2)Man(a1-6)]Man(b1-4)GlcNAc(b1-4)GlcNAc
# Procedure, shortened: as §1
# [3] = biological target: Neu5Ac(a2-6)Gal(b1-4)GlcNAc(b1-2)Man(a1-3)[GlcNAc(b1-2)Man(a1-6)]Man(b1-4)GlcNAc(b1-4)GlcNAc
# Procedure, shortened: as §1
# [4] = biological target: Neu5Ac(a2-6)Gal(b1-4)GlcNAc(b1-2)Man(a1-3)[GlcNAc(b1-2)Man(b1-4)GlcNAc(b1-2)Man(a1-6)]Man(b1-4)GlcNAc(b1-4)GlcNAc
# Procedure, shortened: as §1
# [5] = biological target: Neu5Ac(a2-6)Gal(b1-4)GlcNAc(b1-2)Man(a1-3)[Man(a1-6)]Man(b1-4)GlcNAc(b1-4)GlcNAc
# Procedure, shortened: as §1
# [6] = biological target: Neu5Ac(a2-6)Gal(b1-4)GlcNAc(b1-2)Man(a1-3)[Neu5Ac(a2-6)Gal(b1-4)GlcNAc(b1-2)Man(a1-6)]Man(b1-4)GlcNAc(b1-4)GlcNAc
# Procedure, shortened: as §1
# [7] = biological target: Neu5Ac(a2-6)Gal(b1-4)GlcNAc(b1-2)Man(a1-6)Man(b1-4)GlcNAc(b1-4)GlcNAc
# Procedure, shortened: as §1
# [8] = biological target: Neu5Ac(a2-6)Gal(b1-4)GlcNAc(b1-2)Man(a1-6)[Gal(b1-4)GlcNAc(b1-2)Man(a1-3)]Man(b1-4)GlcNAc(b1-4)GlcNAc
# Procedure, shortened: as §1
# [9] = biological target: Neu5Ac(a2-6)Gal(b1-4)GlcNAc(b1-2)Man(a1-6)[GlcNAc(b1-2)Man(a1-3)]Man(b1-4)GlcNAc(b1-4)GlcNAc
# Procedure, shortened: as §1
# [10] = biological target: Neu5Ac(a2-6)Gal(b1-4)GlcNAc(b1-2)Man(a1-6)[Man(a1-3)]Man(b1-4)GlcNAc(b1-4)GlcNAc
# Procedure, shortened: as §1
# [11] = biological target: Neu5Ac(a2-6)Gal(b1-4)GlcNAc(b1-3)Gal(b1-3)GlcNAc
# Procedure, shortened: as §1
# [12] = biological target: Neu5Ac(a2-6)Gal(b1-4)GlcNAc(b1-3)Gal(b1-4)GlcNAc
# Procedure, shortened: as §1
# [13] = biological target: Neu5Ac(a2-6)Gal(b1-4)GlcNAc(b1-3)Gal(b1-4)GlcNAc(b1-3)Gal(b1-4)GlcNAc
# Procedure, shortened: as §1
# [14] = biological target: Neu5Ac(a2-6)Gal(b1-4)GlcNAc(b1-3)Gal(b1-4)[Fuc(a1-3)]GlcNAc(b1-3)Gal(b1-4)[Fuc(a1-3)]GlcNAc
# Procedure, shortened: as §1
# [15] = biological target: Neu5Ac(a2-6)Gal(b1-4)GlcNAc(b1-3)GalNAc
# Procedure, shortened: as §1
# [16] = biological target: Neu5Ac(a2-6)Gal(b1-4)GlcNAc6S
# Procedure, shortened: as §1
# Neu5Ac(a2-6)GalNAc = biological target: Neu5Ac(a2-6)GalNAc
# Procedure, shortened: as §1
# [17] = biological target: Neu5Ac(a2-6)GalNAc(b1-4)GlcNAc
# Procedure, shortened: as §1
# [18] = biological target: Neu5Ac(a2-6)GlcNAc(b1-4)GlcNAc
# Procedure, shortened: as §1
# [19] = biological target: Neu5Ac(a2-6)GlcNAc(b1-4)GlcNAc(b1-4)GlcNAc
# Procedure, shortened: as §1
# Neu5Ac(a2-8)Neu5Ac = biological target: Neu5Ac(a2-8)Neu5Ac
# Procedure, shortened: as §1
# [20] = biological target: Neu5Ac(a2-8)Neu5Ac(a2-3)Gal(b1-4)Glc
# Procedure, shortened: as §1
# [21] = biological target: Neu5Ac(a2-8)Neu5Ac(a2-3)[GalNAc(b1-4)]Gal(b1-4)Glc
# Procedure, shortened: as §1
# [22] = biological target: Neu5Ac(a2-8)Neu5Ac(a2-8)Neu5Ac
# Procedure, shortened: as §1
# [23] = biological target: Neu5Ac(a2-8)Neu5Ac(a2-8)Neu5Ac(a2-3)Gal(b1-4)Glc
# Procedure, shortened: as §1
# [24] = biological target: Neu5Ac(a2-8)Neu5Ac(a2-8)Neu5Ac(a2-3)[GalNAc(b1-4)]Gal(b1-4)Glc
# Procedure, shortened: as §1
# [25] = biological target: Neu5Ac(a2-8)Neu5Ac(a2-8)Neu5Ac(a2-8)Neu5Ac(a2-3)[GalNAc(b1-4)]Gal(b1-4)Glc
# Procedure, shortened: as §1
# [26] = biological target: Neu5Ac(b2-6)Gal(b1-4)GlcNAc
# Procedure, shortened: as §1
# Neu5Ac(b2-6)GalNAc = biological target: Neu5Ac(b2-6)GalNAc
# Procedure, shortened: as §1
# [27] = biological target: Neu5Ac9Ac(a2-3)Gal(b1-3)GlcNAc
# Procedure, shortened: as §1
# [28] = biological target: Neu5Ac9Ac(a2-3)Gal(b1-4)GlcNAc
# Procedure, shortened: as §1
# [29] = biological target: Neu5Ac9Ac(a2-6)Gal(b1-4)GlcNAc
# Procedure, shortened: as §1
# [30] = biological target: Neu5Gc(a2-3)Gal(b1-3)GlcNAc
# Procedure, shortened: as §1
# [31] = biological target: Neu5Gc(a2-3)Gal(b1-3)[Fuc(a1-4)]GlcNAc
# Procedure, shortened: as §1
# Neu5Gc(a2-3)Gal(b1-4)Glc = biological target: Neu5Gc(a2-3)Gal(b1-4)Glc
# Procedure, shortened: as §1
# [32] = biological target: Neu5Gc(a2-3)Gal(b1-4)GlcNAc
# Procedure, shortened: as §1
# [33] = biological target: Neu5Gc(a2-3)Gal(b1-4)[Fuc(a1-3)]GlcNAc
# Procedure, shortened: as §1
# [34] = biological target: Neu5Gc(a2-6)Gal(b1-4)GlcNAc
# Procedure, shortened: as §1
# Neu5Gc(a2-6)GalNAc = biological target: Neu5Gc(a2-6)GalNAc
# Procedure, shortened: as §1
# [35] = biological target: Neu5Gc(b2-6)Gal(b1-4)GlcNAc
# Procedure, shortened: as §1
binder,measurement,setting,value
B1,glycan array binding signal (z-score),[1],0.893
same,glycan array binding signal (z-score),[2],-0.036
same,glycan array binding signal (z-score),[3],-0.243
same,glycan array binding signal (z-score),[4],-0.667
same,glycan array binding signal (z-score),[5],0.072
same,glycan array binding signal (z-score),[6],0.28
same,glycan array binding signal (z-score),[7],-0.654
same,glycan array binding signal (z-score),[8],-0.278
same,glycan array binding signal (z-score),[9],-0.085
same,glycan array binding signal (z-score),[10],-0.549
same,glycan array binding signal (z-score),[11],-0.445
same,glycan array binding signal (z-score),[12],-0.855
same,glycan array binding signal (z-score),[13],0.65
same,glycan array binding signal (z-score),[14],-0.379
same,glycan array binding signal (z-score),[15],0.313
same,glycan array binding signal (z-score),[16],-0.619
same,glycan array binding signal (z-score),Neu5Ac(a2-6)GalNAc,-0.76
same,glycan array binding signal (z-score),[17],-1.12
same,glycan array binding signal (z-score),[18],-0.182
same,glycan array binding signal (z-score),[19],-0.434
same,glycan array binding signal (z-score),Neu5Ac(a2-8)Neu5Ac,-0.055
same,glycan array binding signal (z-score),[20],-0.515
same,glycan array binding signal (z-score),[21],-0.035
same,glycan array binding signal (z-score),[22],-0.257
same,glycan array binding signal (z-score),[23],-0.05
same,glycan array binding signal (z-score),[24],-0.575
same,glycan array binding signal (z-score),[25],-0.454
same,glycan array binding signal (z-score),[26],-0.382
same,glycan array binding signal (z-score),Neu5Ac(b2-6)GalNAc,-0.144
same,glycan array binding signal (z-score),[27],-0.61
same,glycan array binding signal (z-score),[28],0.407
same,glycan array binding signal (z-score),[29],0.042
same,glycan array binding signal (z-score),[30],0.36
same,glycan array binding signal (z-score),[31],0.141
same,glycan array binding signal (z-score),Neu5Gc(a2-3)Gal(b1-4)Glc,0.227
same,glycan array binding signal (z-score),[32],-0.102
same,glycan array binding signal (z-score),[33],0.193
same,glycan array binding signal (z-score),[34],0.037
same,glycan array binding signal (z-score),Neu5Gc(a2-6)GalNAc,0.112
same,glycan array binding signal (z-score),[35],0.241

# An excerpt of these results, tab-delimited:
binder	measurement	setting	value
B1	glycan array binding signal (z-score)	[26]	-0.382
same	glycan array binding signal (z-score)	Neu5Ac(b2-6)GalNAc	-0.144
same	glycan array binding signal (z-score)	[27]	-0.61
same	glycan array binding signal (z-score)	[28]	0.407
same	glycan array binding signal (z-score)	[29]	0.042
same	glycan array binding signal (z-score)	[30]	0.36
same	glycan array binding signal (z-score)	[31]	0.141
same	glycan array binding signal (z-score)	Neu5Gc(a2-3)Gal(b1-4)Glc	0.227
same	glycan array binding signal (z-score)	[32]	-0.102
same	glycan array binding signal (z-score)	[33]	0.193
same	glycan array binding signal (z-score)	[34]	0.037
